Taken from: PubChem BioAssay AID504804 (Drosophila RNAi Screening Center, 2011)
In all, the deposit lists about 19,000 reagents; below is an unselected part of those that have a named target and a result. Of all reagents, 47 (0.25%) are marked active. 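Signals are raw, not normalised; exact z-scores behind calls not deposited; actives needed confirmation, so some wells reaching 2 SD are inactive.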 The numbers tell different reagents against one gene apart. Names joined by + are all predicted targets of the reagent.

Test: 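dsRNAs that improve Kc cell survival under doxorubicin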 (primary screen)
Cells: Drosophila Kc cells
Reagents: long dsRNA against Drosophila genes, 0.5 µg dsRNA per well
Timing: 96 h (48 h knock-down, then 48 h drug)
Challenge: doxorubicin 5 µg/ml for 48 h, added 48 h after dsRNA
Detection: 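Viability measured as cellular ATP by luminescence after 48 h knock-down then 48 h doxorubicin at 5 µg/ml; unnormalised plate counts for each replicate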
Direction: raw ATP luminescence: higher = more viable cells, protection from doxorubicin
Hit rule: 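z-score of 2 or more over plate mean in both duplicates, retained only when retests and separate dsRNAs confirm the protection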

gene knocked down,dsRNA no.,SD above plate mean,"raw ATP luminescence, replicate 1","raw ATP luminescence, replicate 2",Outcome
PIG-K,1,,50550,50380,inactive
CG10694,1,,60170,48590,inactive
ppl,1,,19213,25113,inactive
cnc,1,,66000,64050,inactive
cnc,2,,33067,27630,inactive
cnc,3,,61410,75530,inactive
cnc,4,,73960,70860,inactive
CG14561,1,,60577,43603,inactive
hbt,1,,42207,66557,inactive
CG32462,1,,22790,39083,inactive
CG3408,1,,97087,80713,inactive
CG15594,1,at least 2 SD above plate mean,81530,85593,active
dsx,1,,65180,72427,inactive
dsx,2,,51487,58907,inactive
ssp3,1,,49770,48317,inactive
ssp3,2,,58010,58250,inactive
CG14333 (retired record),1,,66810,86790,inactive
CG14333 (retired record),2,,57430,50280,inactive
krimp,1,,70577,60407,inactive
Jheh1,1,,57553,55113,inactive
glo,1,,64743,55513,inactive
CG15345 (retired record),1,,45670,53240,inactive
egg,1,,52417,37720,inactive
CG14300,1,,52620,72050,inactive
Pex7,1,,66577,81153,inactive
c(2)M,1,,1.11e5,67370,inactive
CG13084,1,,53820,62733,inactive
CG31388,1,,46923,24837,inactive
CG8067,1,,53313,46683,inactive
Pi3K59F,1,,56810,67257,inactive
CG8112,1,,57173,44957,inactive

Continued, starting with the last 3 of the part before.
gene knocked down,dsRNA no.,SD above plate mean,"raw ATP luminescence, replicate 1","raw ATP luminescence, replicate 2",Outcome
CG8067,1,,53313,46683,inactive
Pi3K59F,1,,56810,67257,inactive
CG8112,1,,57173,44957,inactive
mus201 + Chrac-14,1,,39010,62330,inactive
mus201 + Chrac-14,2,,42343,58190,inactive
Lrrk,1,,61180,64340,inactive
Kyat,1,,51833,44843,inactive
kibra,1,,60370,74580,inactive
kibra,2,,18920,20020,inactive
CG10177,1,,67910,60990,inactive
Sid,1,,72280,46800,inactive
CG4607,1,,42800,50870,inactive
CAH2,1,,68640,67607,inactive
cv-2,1,,68717,60437,inactive
cv-2,2,,52523,64250,inactive
kis,1,,1.11e5,79673,inactive
caps,1,,78723,56787,inactive
CG30114,1,,1.54e5,78307,inactive
RpS3,1,,40170,30150,inactive
CG32579,1,,3.36e5,2.50e5,inactive
CG4438,1,,41170,84880,inactive
Rh4 + sina,1,,24223,25987,inactive
Sox21b,1,,25573,21833,inactive
Sox21b,2,,26020,28137,inactive
CG6118,1,,27420,22380,inactive
tst,1,,31007,29087,inactive
CG10920,1,,44050,41150,inactive
HisRS,1,,2.60e5,2.64e5,inactive
CG14618,1,,2.72e5,2.90e5,inactive
mol,1,,2.49e5,2.08e5,inactive
mol,2,,74683,66787,inactive
mol,3,,62283,64027,inactive
mRpS2,1,,25763,23827,inactive
Tsp42Eg,1,,64297,62820,inactive
CG14204,1,,2.89e5,2.96e5,inactive
CG12522,1,,1.55e5,1.19e5,inactive
CG13654,1,,77750,61860,inactive
CG8620,1,,60963,77080,inactive
CG13747,1,,40107,72043,inactive
CG15024,1,,79733,77673,inactive
CG14418,1,,36510,25470,inactive
Mms19,1,,35167,35423,inactive
Atx2,1,,15373,8573,inactive
ebd1,1,,83280,62517,inactive
CG14720,1,,51633,66397,inactive
mib2,1,,86510,57327,inactive
CG14440,1,,12390,16820,inactive
elgi,1,,37417,35690,inactive
RpL27,1,,36000,35220,inactive
Srp68,1,,46367,38993,inactive
CG6236,1,,46403,22657,inactive
CG4101,1,,39803,36310,inactive
sktl,1,at least 2 SD above plate mean,93880,91533,inactive
Lim1,1,,45820,52470,inactive
CG15772,1,,36550,44890,inactive
eIF1A,1,,65750,79040,inactive
